Results reported in the supplement of paper PMC12067093, “Discovery and optimisation of a covalent ligand for TRIM25 and its application to targeted protein ubiquitination” (Chemical Science, 2025).
The list shows a part of the results.
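Further: competitive chemoproteomic profiling in live THP-1 cells with an iodoacetamide desthiobiotin (IA-DTB) probe, comparing probe-labelled peptide intensities in compound-treated cells against DMSO-treated controls.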

The chains behind the UniProt entries cited, without tags or fusion partners. Where a name states a change or a piece, a line headed by the entry shows the natural chain unless it says otherwise.
UniProt Q9GZP4: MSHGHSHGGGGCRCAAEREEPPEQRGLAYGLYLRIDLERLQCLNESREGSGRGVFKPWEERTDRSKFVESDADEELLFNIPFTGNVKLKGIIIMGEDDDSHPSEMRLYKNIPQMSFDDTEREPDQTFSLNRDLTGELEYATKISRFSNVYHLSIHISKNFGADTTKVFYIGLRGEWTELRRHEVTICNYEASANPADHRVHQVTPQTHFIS
UniProt Q13393: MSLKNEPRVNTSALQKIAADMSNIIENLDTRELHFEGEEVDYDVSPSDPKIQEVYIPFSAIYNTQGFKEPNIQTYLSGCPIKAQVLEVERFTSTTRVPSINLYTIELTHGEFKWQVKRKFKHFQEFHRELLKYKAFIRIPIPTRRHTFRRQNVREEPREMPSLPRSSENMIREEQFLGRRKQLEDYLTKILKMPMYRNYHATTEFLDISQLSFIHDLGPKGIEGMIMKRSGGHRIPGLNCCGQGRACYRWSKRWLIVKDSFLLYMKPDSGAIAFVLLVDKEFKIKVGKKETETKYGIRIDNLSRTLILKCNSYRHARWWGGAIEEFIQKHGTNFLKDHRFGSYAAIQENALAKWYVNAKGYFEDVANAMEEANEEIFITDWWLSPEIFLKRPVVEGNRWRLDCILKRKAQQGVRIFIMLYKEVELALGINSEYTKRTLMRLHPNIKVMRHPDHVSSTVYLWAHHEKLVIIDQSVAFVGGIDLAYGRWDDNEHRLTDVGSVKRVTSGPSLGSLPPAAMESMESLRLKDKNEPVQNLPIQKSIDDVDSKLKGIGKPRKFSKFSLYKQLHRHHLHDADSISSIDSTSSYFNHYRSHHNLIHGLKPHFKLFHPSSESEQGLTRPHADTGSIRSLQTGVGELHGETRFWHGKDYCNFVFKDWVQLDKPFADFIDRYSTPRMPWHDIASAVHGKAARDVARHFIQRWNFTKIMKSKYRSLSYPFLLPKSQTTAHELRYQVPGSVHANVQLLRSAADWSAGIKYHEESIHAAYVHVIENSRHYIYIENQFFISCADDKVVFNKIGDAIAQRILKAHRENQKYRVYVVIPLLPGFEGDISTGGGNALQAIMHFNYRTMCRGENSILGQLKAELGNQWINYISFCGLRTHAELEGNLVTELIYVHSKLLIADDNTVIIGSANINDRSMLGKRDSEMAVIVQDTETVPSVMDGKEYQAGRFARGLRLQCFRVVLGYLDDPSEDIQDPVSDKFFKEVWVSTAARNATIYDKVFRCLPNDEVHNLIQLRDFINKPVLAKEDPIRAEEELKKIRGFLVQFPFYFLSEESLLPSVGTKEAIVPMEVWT
UniProt P16885: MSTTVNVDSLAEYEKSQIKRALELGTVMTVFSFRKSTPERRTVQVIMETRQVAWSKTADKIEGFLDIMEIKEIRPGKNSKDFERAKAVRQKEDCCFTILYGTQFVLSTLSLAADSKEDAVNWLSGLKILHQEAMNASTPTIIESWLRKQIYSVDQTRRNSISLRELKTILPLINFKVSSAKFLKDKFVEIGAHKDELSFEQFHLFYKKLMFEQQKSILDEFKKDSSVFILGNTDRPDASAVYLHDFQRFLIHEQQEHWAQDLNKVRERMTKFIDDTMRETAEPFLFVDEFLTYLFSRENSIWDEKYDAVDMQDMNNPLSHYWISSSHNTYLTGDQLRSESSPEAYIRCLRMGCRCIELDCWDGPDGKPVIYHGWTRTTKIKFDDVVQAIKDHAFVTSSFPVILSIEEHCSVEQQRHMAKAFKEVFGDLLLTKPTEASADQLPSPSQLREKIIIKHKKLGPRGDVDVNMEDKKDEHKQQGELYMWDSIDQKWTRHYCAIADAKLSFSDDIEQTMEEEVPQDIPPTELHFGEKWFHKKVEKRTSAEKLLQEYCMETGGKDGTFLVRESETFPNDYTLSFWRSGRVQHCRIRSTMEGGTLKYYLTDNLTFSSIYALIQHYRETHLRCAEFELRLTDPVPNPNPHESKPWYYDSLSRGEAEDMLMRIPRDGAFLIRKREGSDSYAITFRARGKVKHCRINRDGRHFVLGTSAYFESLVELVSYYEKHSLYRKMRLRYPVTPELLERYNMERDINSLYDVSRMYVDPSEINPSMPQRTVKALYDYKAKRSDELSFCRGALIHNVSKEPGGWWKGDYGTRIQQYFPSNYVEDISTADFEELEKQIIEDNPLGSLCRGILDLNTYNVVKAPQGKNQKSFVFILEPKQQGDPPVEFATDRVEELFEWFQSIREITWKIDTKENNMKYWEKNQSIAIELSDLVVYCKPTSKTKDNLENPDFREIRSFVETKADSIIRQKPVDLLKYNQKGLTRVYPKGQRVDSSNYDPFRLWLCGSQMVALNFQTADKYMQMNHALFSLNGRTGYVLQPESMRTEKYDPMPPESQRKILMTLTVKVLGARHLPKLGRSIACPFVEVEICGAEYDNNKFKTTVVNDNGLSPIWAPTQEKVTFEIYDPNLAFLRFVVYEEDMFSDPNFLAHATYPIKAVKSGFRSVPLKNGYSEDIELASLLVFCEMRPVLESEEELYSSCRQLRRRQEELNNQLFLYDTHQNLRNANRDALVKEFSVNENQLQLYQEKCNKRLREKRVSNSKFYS
UniProt O60331: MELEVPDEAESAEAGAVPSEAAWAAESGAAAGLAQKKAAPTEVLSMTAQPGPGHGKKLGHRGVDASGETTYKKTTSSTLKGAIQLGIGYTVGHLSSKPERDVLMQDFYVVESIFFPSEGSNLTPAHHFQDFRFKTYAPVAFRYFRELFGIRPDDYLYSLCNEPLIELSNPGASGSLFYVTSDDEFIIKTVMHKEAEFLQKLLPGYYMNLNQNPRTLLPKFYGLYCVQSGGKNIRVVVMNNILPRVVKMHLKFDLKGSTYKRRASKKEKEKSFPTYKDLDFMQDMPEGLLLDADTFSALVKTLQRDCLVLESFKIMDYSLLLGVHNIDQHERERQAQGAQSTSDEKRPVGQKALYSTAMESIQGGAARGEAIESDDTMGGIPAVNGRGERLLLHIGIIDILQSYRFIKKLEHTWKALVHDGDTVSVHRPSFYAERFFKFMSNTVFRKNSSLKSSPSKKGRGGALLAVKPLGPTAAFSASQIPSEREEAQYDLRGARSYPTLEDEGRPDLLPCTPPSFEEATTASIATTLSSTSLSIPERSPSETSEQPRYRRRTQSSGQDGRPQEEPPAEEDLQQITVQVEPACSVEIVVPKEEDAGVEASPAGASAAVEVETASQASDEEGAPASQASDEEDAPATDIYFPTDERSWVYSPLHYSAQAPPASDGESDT
UniProt O94903: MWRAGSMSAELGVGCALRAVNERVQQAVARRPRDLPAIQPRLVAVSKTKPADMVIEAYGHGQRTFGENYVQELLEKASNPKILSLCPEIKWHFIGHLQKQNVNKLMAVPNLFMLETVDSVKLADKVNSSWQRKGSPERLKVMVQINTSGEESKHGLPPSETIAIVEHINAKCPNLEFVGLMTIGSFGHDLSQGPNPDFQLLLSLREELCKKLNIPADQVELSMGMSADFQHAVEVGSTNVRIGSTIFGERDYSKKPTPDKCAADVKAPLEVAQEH
UniProt P19174: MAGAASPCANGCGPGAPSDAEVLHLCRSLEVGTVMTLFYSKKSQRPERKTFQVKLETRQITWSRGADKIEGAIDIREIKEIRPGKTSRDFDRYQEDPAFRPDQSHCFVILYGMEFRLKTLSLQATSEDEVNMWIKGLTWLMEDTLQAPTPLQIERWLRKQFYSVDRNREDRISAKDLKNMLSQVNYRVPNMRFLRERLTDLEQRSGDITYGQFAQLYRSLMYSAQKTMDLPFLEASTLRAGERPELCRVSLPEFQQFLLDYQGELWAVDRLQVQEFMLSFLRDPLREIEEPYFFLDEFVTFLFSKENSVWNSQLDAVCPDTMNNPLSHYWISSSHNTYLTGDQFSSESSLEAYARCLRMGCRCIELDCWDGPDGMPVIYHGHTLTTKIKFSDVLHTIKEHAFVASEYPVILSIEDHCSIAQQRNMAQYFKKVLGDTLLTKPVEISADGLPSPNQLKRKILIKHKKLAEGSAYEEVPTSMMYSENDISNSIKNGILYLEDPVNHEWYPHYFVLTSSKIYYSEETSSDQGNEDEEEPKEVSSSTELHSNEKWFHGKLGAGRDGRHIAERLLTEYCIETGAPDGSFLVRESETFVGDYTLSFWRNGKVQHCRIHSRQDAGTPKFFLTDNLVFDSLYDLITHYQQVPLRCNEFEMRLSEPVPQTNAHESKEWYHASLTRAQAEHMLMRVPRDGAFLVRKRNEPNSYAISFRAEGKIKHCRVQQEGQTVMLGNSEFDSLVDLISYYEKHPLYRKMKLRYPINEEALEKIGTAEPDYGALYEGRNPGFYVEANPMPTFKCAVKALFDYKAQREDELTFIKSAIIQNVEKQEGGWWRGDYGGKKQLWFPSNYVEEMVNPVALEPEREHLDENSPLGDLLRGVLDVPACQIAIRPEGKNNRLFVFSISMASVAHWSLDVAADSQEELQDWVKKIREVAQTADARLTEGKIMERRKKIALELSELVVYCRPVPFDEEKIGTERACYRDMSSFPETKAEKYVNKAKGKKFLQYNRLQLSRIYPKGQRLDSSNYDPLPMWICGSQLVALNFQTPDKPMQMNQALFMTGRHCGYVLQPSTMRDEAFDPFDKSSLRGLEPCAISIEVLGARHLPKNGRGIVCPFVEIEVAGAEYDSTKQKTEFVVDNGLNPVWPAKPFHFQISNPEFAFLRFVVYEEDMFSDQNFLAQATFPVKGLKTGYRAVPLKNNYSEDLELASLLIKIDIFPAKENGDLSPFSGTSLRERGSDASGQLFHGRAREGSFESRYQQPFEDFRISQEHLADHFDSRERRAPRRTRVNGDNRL
UniProt P29590: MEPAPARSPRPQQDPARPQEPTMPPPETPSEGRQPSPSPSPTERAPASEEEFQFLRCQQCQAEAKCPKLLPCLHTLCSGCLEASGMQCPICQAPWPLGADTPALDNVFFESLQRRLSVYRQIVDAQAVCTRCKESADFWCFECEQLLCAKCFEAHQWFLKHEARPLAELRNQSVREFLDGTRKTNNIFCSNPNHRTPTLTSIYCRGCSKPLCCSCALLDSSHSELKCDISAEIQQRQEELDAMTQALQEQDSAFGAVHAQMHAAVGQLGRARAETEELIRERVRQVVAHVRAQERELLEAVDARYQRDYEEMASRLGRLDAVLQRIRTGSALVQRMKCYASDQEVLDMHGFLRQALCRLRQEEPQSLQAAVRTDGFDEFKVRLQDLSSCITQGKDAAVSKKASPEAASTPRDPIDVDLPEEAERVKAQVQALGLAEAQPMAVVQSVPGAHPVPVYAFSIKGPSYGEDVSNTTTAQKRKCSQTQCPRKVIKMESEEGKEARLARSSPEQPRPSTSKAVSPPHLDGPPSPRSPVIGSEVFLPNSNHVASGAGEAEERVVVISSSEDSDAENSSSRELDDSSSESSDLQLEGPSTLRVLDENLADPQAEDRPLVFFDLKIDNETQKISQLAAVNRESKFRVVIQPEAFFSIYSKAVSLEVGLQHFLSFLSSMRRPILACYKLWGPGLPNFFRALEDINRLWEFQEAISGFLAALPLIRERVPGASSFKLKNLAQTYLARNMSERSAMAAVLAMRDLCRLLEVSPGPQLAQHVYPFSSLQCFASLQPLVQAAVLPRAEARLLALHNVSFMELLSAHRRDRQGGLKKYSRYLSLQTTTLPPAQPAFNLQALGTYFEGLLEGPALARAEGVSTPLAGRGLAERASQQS
UniProt Q8N490: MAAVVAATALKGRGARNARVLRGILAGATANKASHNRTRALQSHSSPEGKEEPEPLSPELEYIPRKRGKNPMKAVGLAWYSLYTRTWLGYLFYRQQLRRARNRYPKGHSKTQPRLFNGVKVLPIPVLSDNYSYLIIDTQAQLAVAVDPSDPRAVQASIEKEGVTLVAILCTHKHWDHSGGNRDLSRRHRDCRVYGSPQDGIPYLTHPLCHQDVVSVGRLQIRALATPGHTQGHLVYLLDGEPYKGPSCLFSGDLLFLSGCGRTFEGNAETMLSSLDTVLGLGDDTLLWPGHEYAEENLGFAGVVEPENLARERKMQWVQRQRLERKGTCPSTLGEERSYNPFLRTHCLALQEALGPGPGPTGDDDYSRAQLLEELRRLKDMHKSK
UniProt O43660: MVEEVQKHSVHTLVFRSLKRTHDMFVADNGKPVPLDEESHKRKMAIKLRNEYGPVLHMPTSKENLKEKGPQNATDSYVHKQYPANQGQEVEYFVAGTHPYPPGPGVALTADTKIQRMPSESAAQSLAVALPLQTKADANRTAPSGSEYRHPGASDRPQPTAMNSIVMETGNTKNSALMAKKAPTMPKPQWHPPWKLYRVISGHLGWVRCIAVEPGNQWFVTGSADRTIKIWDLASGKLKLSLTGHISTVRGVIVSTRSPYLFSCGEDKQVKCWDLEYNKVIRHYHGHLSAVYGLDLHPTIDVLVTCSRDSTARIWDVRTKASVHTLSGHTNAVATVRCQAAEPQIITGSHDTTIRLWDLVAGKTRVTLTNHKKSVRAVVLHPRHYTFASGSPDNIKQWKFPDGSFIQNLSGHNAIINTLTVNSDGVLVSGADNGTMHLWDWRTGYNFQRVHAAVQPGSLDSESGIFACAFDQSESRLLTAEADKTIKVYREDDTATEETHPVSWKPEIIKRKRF

These targets were tested with CC1Cc2ccccc2N1C(=O)C1CCCN(C1)C(=O)CCl (mixture of isomers) [TRIM25 ligand 11 (diastereomer mixture)] (assay: probe-labelled cysteine peptide fold change vs DMSO (competition) (log2 fold change); higher = less target engagement (more negative = stronger competition)). Conditions: 10 µM; THP-1; incubation time: 4 h.
With “PIK3CD_O00329_416_KADCPIAWANLMLFDYK (UniProt O00329)” the “probe-labelled cysteine peptide fold change” value was -0.0873. “PLXNB2_O15031_486_DSQDPYCGWCVVEGR (UniProt O15031)” was tested, and the “probe-labelled cysteine peptide fold change” value was -0.0143. In the case of “PITHD1_Q9GZP4_42_LQCLNESR (UniProt Q9GZP4)”, the “probe-labelled cysteine peptide fold change” value is reported as 0.109. “PLCL2_Q9UPR0_1095_QIHFAAVSCGLNKPGTENADVQKPR (UniProt Q9UPR0)” was tested, and the “probe-labelled cysteine peptide fold change” value was -0.0662. “PLAA_Q9Y263_666_TFCNCFVGQAGQK (UniProt Q9Y263)” was tested, and the “probe-labelled cysteine peptide fold change” value was -0.109. In the case of “PLD1_Q13393_1004_CLPNDEVHNLIQLR (UniProt Q13393)”, the “probe-labelled cysteine peptide fold change” value is reported as 0.0737. In the case of “PLCG2_P16885_496_HYCAIADAK (UniProt P16885)”, the “probe-labelled cysteine peptide fold change” value is reported as -0.0451. For “PIK3CB_P42338_626_EYAVGCLR (UniProt P42338)”, the “probe-labelled cysteine peptide fold change” value was 0.19. In the case of “PIP5K1C_O60331_225_FYGLYCVQSGGK (UniProt O60331)”, the “probe-labelled cysteine peptide fold change” value is reported as 0.0274. With “PLPBP_O94903_15_AGSMSAELGVGCALR (UniProt O94903)” the “probe-labelled cysteine peptide fold change” value was -0.0502. In the case of “PLBD2_Q8NHP8_492_YNDFLHDPLSLCK (UniProt Q8NHP8)”, the “probe-labelled cysteine peptide fold change” value is reported as 0.0201. “PIKFYVE_Q9Y2I7_831_TLMFFEGCPQHLGCTIK (UniProt Q9Y2I7)” was tested, and the “probe-labelled cysteine peptide fold change” value was -0.0789. “PKM_P14618_326_AGKPVICATQMLESMIK (UniProt P14618)” was tested, and the “probe-labelled cysteine peptide fold change” value was -0.117. In the case of “PIKFYVE_Q9Y2I7_1498_QSLCEVLQAWNNR (UniProt Q9Y2I7)”, the “probe-labelled cysteine peptide fold change” value is reported as -0.0183. For “PLCB2_Q00722_1001_QGEEQYECVLK (UniProt Q00722)”, the “probe-labelled cysteine peptide fold change” value was -0.137. For “PLA2G15_Q8NCC3_65_LDKPTVVHYLCSK (UniProt Q8NCC3)”, the “probe-labelled cysteine peptide fold change” value was 0.158. With “PLXND1_Q9Y4D7_445_KLNIQLQPEQLDCGAAHLQHPLSILQPLK (UniProt Q9Y4D7)” the “probe-labelled cysteine peptide fold change” value was 0.116. “PLBD2_Q8NHP8_495_ACNPQPNGENAISAR (UniProt Q8NHP8)” was tested, and the “probe-labelled cysteine peptide fold change” value was -0.125. “PLOD2_O00469_576_ACDELVEEMEHYGK (UniProt O00469)” was tested, and the “probe-labelled cysteine peptide fold change” value was -0.0126. With “PLAA_Q9Y263_278_LPAQSIWCCCVLDNGDIVVGASDGIIR (UniProt Q9Y263)” the “probe-labelled cysteine peptide fold change” value was -0.164. “PINX1_Q96BK5_145_SKTDLDCIFGK (UniProt Q96BK5)” was tested, and the “probe-labelled cysteine peptide fold change” value was -0.138. For “PLEKHA2_Q9HB19_191_SQSYIPTSGCR (UniProt Q9HB19)”, the “probe-labelled cysteine peptide fold change” value was -0.043. For “PLCG1_P19174_417_EHAFVASEYPVILSIEDHCSIAQQR (UniProt P19174)”, the “probe-labelled cysteine peptide fold change” value was -0.304. With “PNPO_Q9NVS9_156_KLPEEEAECYFHSRPK (UniProt Q9NVS9)” the “probe-labelled cysteine peptide fold change” value was -0.0908. “PIK3CD_O00329_718_ELMHLCMR (UniProt O00329)” was tested, and the “probe-labelled cysteine peptide fold change” value was 0.0534. In the case of “PLEKHF2_Q9H8W4_186_CGFVVCGPCSEK (UniProt Q9H8W4)”, the “probe-labelled cysteine peptide fold change” value is reported as 0.0588. With “PML_P29590_151_CFEAHQWFLK (UniProt P29590)” the “probe-labelled cysteine peptide fold change” value was -0.0245. “PLEC_Q15149_1098_EYGSCSHHYQQLLQSLEQGAQEESR (UniProt Q15149)” was tested, and the “probe-labelled cysteine peptide fold change” value was 0.00989. With “PIK3CD_O00329_500_HSECVHVTEEEQLQLR (UniProt O00329)” the “probe-labelled cysteine peptide fold change” value was -0.0604. For “PLEKHM2_Q8IWE5_28_KLQSYFAACEDEIPAIR (UniProt Q8IWE5)”, the “probe-labelled cysteine peptide fold change” value was -0.0431. For “PNO1_Q9NRX1_226_TAICNLILGNPPSK (UniProt Q9NRX1)”, the “probe-labelled cysteine peptide fold change” value was 0.191. With “PNKD_Q8N490_170_EGVTLVAILCTHK (UniProt Q8N490)” the “probe-labelled cysteine peptide fold change” value was -0.0503. For “PLEK_P08567_102_CIEGGQK (UniProt P08567)”, the “probe-labelled cysteine peptide fold change” value was 0.0434. “PKM_P14618_152_CDENILWLDYK (UniProt P14618)” was tested, and the “probe-labelled cysteine peptide fold change” value was 0.0775. With “PLCB2_Q00722_945_GAAQLAELGPPGVGGVGACK (UniProt Q00722)” the “probe-labelled cysteine peptide fold change” value was 0.0221. With “PLIN3_O60664_341_DIAQQLQATCTSLGSSIQGLPTNVK (UniProt O60664)” the “probe-labelled cysteine peptide fold change” value was -0.0581. In the case of “PLRG1_O43660_468_VHAAVQPGSLDSESGIFACAFDQSESR (UniProt O43660)”, the “probe-labelled cysteine peptide fold change” value is reported as 0.297.

Same assay, conditions: 50 µM; THP-1; incubation time: 4 h
For “PIK3CD_O00329_416_KADCPIAWANLMLFDYK (UniProt O00329)”, the “probe-labelled cysteine peptide fold change” value was -0.115. With “PLXNB2_O15031_486_DSQDPYCGWCVVEGR (UniProt O15031)” the “probe-labelled cysteine peptide fold change” value was 0.0368. With “PITHD1_Q9GZP4_42_LQCLNESR (UniProt Q9GZP4)” the “probe-labelled cysteine peptide fold change” value was 0.13. For “PLCL2_Q9UPR0_1095_QIHFAAVSCGLNKPGTENADVQKPR (UniProt Q9UPR0)”, the “probe-labelled cysteine peptide fold change” value was -0.127. With “PLAA_Q9Y263_666_TFCNCFVGQAGQK (UniProt Q9Y263)” the “probe-labelled cysteine peptide fold change” value was 0.0225. In the case of “PLD1_Q13393_1004_CLPNDEVHNLIQLR (UniProt Q13393)”, the “probe-labelled cysteine peptide fold change” value is reported as 0.261. With “PLCG2_P16885_496_HYCAIADAK (UniProt P16885)” the “probe-labelled cysteine peptide fold change” value was 0.0973. In the case of “PIK3CB_P42338_626_EYAVGCLR (UniProt P42338)”, the “probe-labelled cysteine peptide fold change” value is reported as 0.113. “PIP5K1C_O60331_225_FYGLYCVQSGGK (UniProt O60331)” was tested, and the “probe-labelled cysteine peptide fold change” value was 0.2. For “PLPBP_O94903_15_AGSMSAELGVGCALR (UniProt O94903)”, the “probe-labelled cysteine peptide fold change” value was -0.104. For “PLBD2_Q8NHP8_492_YNDFLHDPLSLCK (UniProt Q8NHP8)”, the “probe-labelled cysteine peptide fold change” value was 0.0295. In the case of “PIKFYVE_Q9Y2I7_831_TLMFFEGCPQHLGCTIK (UniProt Q9Y2I7)”, the “probe-labelled cysteine peptide fold change” value is reported as -0.0387. “PKM_P14618_326_AGKPVICATQMLESMIK (UniProt P14618)” was tested, and the “probe-labelled cysteine peptide fold change” value was -0.199. For “PIKFYVE_Q9Y2I7_1498_QSLCEVLQAWNNR (UniProt Q9Y2I7)”, the “probe-labelled cysteine peptide fold change” value was -0.0422. For “PLCB2_Q00722_1001_QGEEQYECVLK (UniProt Q00722)”, the “probe-labelled cysteine peptide fold change” value was -0.0186. For “PLA2G15_Q8NCC3_65_LDKPTVVHYLCSK (UniProt Q8NCC3)”, the “probe-labelled cysteine peptide fold change” value was 0.342. For “PLXND1_Q9Y4D7_445_KLNIQLQPEQLDCGAAHLQHPLSILQPLK (UniProt Q9Y4D7)”, the “probe-labelled cysteine peptide fold change” value was 0.192. For “PLBD2_Q8NHP8_495_ACNPQPNGENAISAR (UniProt Q8NHP8)”, the “probe-labelled cysteine peptide fold change” value was -0.0422. With “PLOD2_O00469_576_ACDELVEEMEHYGK (UniProt O00469)” the “probe-labelled cysteine peptide fold change” value was -0.0599. In the case of “PLAA_Q9Y263_278_LPAQSIWCCCVLDNGDIVVGASDGIIR (UniProt Q9Y263)”, the “probe-labelled cysteine peptide fold change” value is reported as 0.0627. For “PINX1_Q96BK5_145_SKTDLDCIFGK (UniProt Q96BK5)”, the “probe-labelled cysteine peptide fold change” value was -0.268. For “PLEKHA2_Q9HB19_191_SQSYIPTSGCR (UniProt Q9HB19)”, the “probe-labelled cysteine peptide fold change” value was -0.184. “PLCG1_P19174_417_EHAFVASEYPVILSIEDHCSIAQQR (UniProt P19174)” was tested, and the “probe-labelled cysteine peptide fold change” value was 0.251. With “PNPO_Q9NVS9_156_KLPEEEAECYFHSRPK (UniProt Q9NVS9)” the “probe-labelled cysteine peptide fold change” value was -0.0729. “PIK3CD_O00329_718_ELMHLCMR (UniProt O00329)” was tested, and the “probe-labelled cysteine peptide fold change” value was 0.104. In the case of “PLEKHF2_Q9H8W4_186_CGFVVCGPCSEK (UniProt Q9H8W4)”, the “probe-labelled cysteine peptide fold change” value is reported as 0.246. In the case of “PML_P29590_151_CFEAHQWFLK (UniProt P29590)”, the “probe-labelled cysteine peptide fold change” value is reported as -0.0707. In the case of “PLEC_Q15149_1098_EYGSCSHHYQQLLQSLEQGAQEESR (UniProt Q15149)”, the “probe-labelled cysteine peptide fold change” value is reported as -0.19. For “PIK3CD_O00329_500_HSECVHVTEEEQLQLR (UniProt O00329)”, the “probe-labelled cysteine peptide fold change” value was 0.0253. In the case of “PLEKHM2_Q8IWE5_28_KLQSYFAACEDEIPAIR (UniProt Q8IWE5)”, the “probe-labelled cysteine peptide fold change” value is reported as -0.0917. In the case of “PNO1_Q9NRX1_226_TAICNLILGNPPSK (UniProt Q9NRX1)”, the “probe-labelled cysteine peptide fold change” value is reported as 0.0727. For “PNKD_Q8N490_170_EGVTLVAILCTHK (UniProt Q8N490)”, the “probe-labelled cysteine peptide fold change” value was 0.107. For “PLEK_P08567_102_CIEGGQK (UniProt P08567)”, the “probe-labelled cysteine peptide fold change” value was 0.0851. In the case of “PKM_P14618_152_CDENILWLDYK (UniProt P14618)”, the “probe-labelled cysteine peptide fold change” value is reported as 0.0033. In the case of “PLCB2_Q00722_945_GAAQLAELGPPGVGGVGACK (UniProt Q00722)”, the “probe-labelled cysteine peptide fold change” value is reported as -0.239. In the case of “PLIN3_O60664_341_DIAQQLQATCTSLGSSIQGLPTNVK (UniProt O60664)”, the “probe-labelled cysteine peptide fold change” value is reported as -0.0803. “PLRG1_O43660_468_VHAAVQPGSLDSESGIFACAFDQSESR (UniProt O43660)” was tested, and the “probe-labelled cysteine peptide fold change” value was 0.074.
